Data from patent publication US20220074941A1, “HSP90 COMBINATION THERAPY” (Sloan-Kettering Institute for Cancer Research, priority 2011, published 2022).

Tested on: Hsp90 complexes in K562 cell extract
Experiment: Nano-LC-MS/MS of PU-beads pull-downs
Assay type: binding
Conditions: for Matched Peptides by Fraction JA03: Run1, gel size cut 110-150; for Matched Peptides by Fraction JA10: Run2, gel size cut 110-150; for MAXIMUM matched peptides: maximum over fractions JA01-JA14; for Total fmol: protein isolated in PU-beads pull-downs, Waters Xevo QTof MS; for Matched Peptides by Fraction JA05: Run1, gel size cut 60-80; for Matched Peptides by Fraction JA12: Run2, gel size cut 60-80; for Matched Peptides by Fraction JA07: Run1, gel size cut <40; for Matched Peptides by Fraction JA14: Run2, gel size cut <40
How it was run: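 Lysates pre-cleared overnight at 4 °C with control beads, then pulled down with PU-beads or control beads; eluted proteins (2% SDS boil) gel-separated and analysed by nano LC-MS/MS on a QTof. Mascot identification (p<0.05), spectral counts and sequence coverage evaluated in Scaffold.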

B1: Interleukin enhancer-binding factor 3; ILF3 (protein, UniProt Q12906 1-894, looked up)
Interleukin enhancer-binding …: MRPMRIFVNDDRHVMAKHSSVYPTQEELEAVQNMVSHTERALKAVSDWIDEQEKGSSEQAESDNMDVPPEDDSKEGAGEQKTEHMTRTLRGVMRVGLVAKGLLLKGDLDLELVLLCKEKPTTALLDKVADNLAIQLAAVTEDKYEILQSVDDAAIVIKNTKEPPLSLTIHLTSPVVREEMEKVLAGETLSVNDPPDVLDRQKCLAALASLRHAKWFQARANGLKSCVIVIRVLRDLCTRVPTWGPLRGWPLELLCEKSIGTANRPMGAGEALRRVLECLASGIVMPDGSGIYDPCEKEATDAIGHLDRQQREDITQSAQHALRLAAFGQLHKVLGMDPLPSKMPKKPKNENPVDYTVQIPPSTTYAITPMKRPMEEDGEEKSPSKKKKKIQKKEEKAEPPQAMNALMRLNQLKPGLQYKLVSQTGPVHAPIFTMSVEVDGNSFEASGPSKKTAKLHVAVKVLQDMGLPTGAEGRDSSKGEDSAEETEAKPAVVAPAPVVEAVSTPSAAFPSDATAEQGPILTKHGKNPVMELNEKRRGLKYELISETGGSHDKRFVMEVEVDGQKFQGAGSNKKVAKAYAALAALEKLFPDTPLALDANKKKRAPVPVRGGPKFAAKPHNPGFGMGGPMHNEVPPPPNLRGRGRGGSIRGRGRGRGFGGANHGGYMNAGAGYGSYGYGGNSATAGYSQFYSNGGHSGNASGGGGGGGGGSSGYGSYYQGDNYNSPVPPKHAGKKQPHGGQQKPSYGSGYQSHQGQQQSYNQSPYSNYGPPQGKQKGYNHGQGSYSYSNSYNSPGGGGGSDYNYESKFNYSGSGGRSGGNSYGSGGASYNPGSHGGYGGGSGGGSSYQGKQGGYSQSNYNSPGSGQNYSGPPSSYQSSQGGYGRNADHSMNYQYR
PU-beads pull-down, Run1, gel size cut 80-110
  Matched Peptides by Fraction JA04: 20
PU-beads pull-down
  Matched Peptides by Fraction JA03: 9
  Matched Peptides by Fraction JA10: 9
  MAXIMUM matched peptides: 21
PU-beads pull-down, Run2, gel size cut 80-110
  Matched Peptides by Fraction JA11: 21
  Total fmol: 16.2442 fmol

B2: Serine/threonine-protein kinase Nek9 (protein, UniProt Q8TD19 2-979, looked up)
Serine/threonine-protein …: SVLGEYERHCDSINSDFGSESGGCGDSSPGPSASQGPRAGGGAAEQEELHYIPIRVLGRGAFGEATLYRRTEDDSLVVWKEVDLTRLSEKERRDALNEIVILALLQHDNIIAYYNHFMDNTTLLIELEYCNGGNLYDKILRQKDKLFEEEMVVWYLFQIVSAVSCIHKAGILHRDIKTLNIFLTKANLIKLGDYGLAKKLNSEYSMAETLVGTPYYMSPELCQGVKYNFKSDIWAVGCVIFELLTLKRTFDATNPLNLCVKIVQGIRAMEVDSSQYSLELIQMVHSCLDQDPEQRPTADELLDRPLLRKRRREMEEKVTLLNAPTKRPRSSTVTEAPIAVVTSRTSEVYVWGGGKSTPQKLDVIKSGCSARQVCAGNTHFAVVTVEKELYTWVNMQGGTKLHGQLGHGDKASYRQPKHVEKLQGKAIRQVSCGDDFTVCVTDEGQLYAFGSDYYGCMGVDKVAGPEVLEPMQLNFFLSNPVEQVSCGDNHVVVLTRNKEVYSWGCGEYGRLGLDSEEDYYTPQKVDVPKALIIVAVQCGCDGTFLLTQSGKVLACGLNEFNKLGLNQCMSGIINHEAYHEVPYTTSFTLAKQLSFYKIRTIAPGKTHTAAIDERGRLLTFGCNKCGQLGVGNYKKRLGINLLGGPLGGKQVIRVSCGDEFTIAATDDNHIFAWGNGGNGRLAMTPTERPHGSDICTSWPRPIFGSLHHVPDLSCRGWHTILIVEKVLNSKTIRSNSSGLSIGTVFQSSSPGGGGGGGGGEEEDSQQESETPDPSGGFRGTMEADRGMEGLISPTEAMGNSNGASSSCPGWLRKELENAEFIPMPDSPSPLSAAFSESEKDTLPYEELQGLKVASEAPLEHKPQVEASSPRLNPAVTCAGKGTPLTPPACACSSLQVEVERLQGLVLKCLAEQQKLQQENLQIFTQLQKLNKKLEGGQQVGMHSKGTQTAKEEMEMDPKPDLDSDSWCLLGTDSCRPSL
PU-beads pull-down
  Matched Peptides by Fraction JA03: 5
  Matched Peptides by Fraction JA10: 11
  MAXIMUM matched peptides: 11
  Total fmol: 5.5558 fmol

B3: Transforming growth factor beta regulator 4 (protein, UniProt Q969Z0 108-631, looked up)
FAST kinase domain-containing …: SHLLSEKPEDKGLLIQDAHFHQLLCLLNSQIASVWHGTLSKLLGSLYALGIPKASKELQSVEQEVRWRMRKLKYKHLAFLAESCATLSQEQHSQELLAELLTHLERRWTEIEDSHTLVTVMMKVGHLSEPLMNRLEDKCLELVEHFGPNELRKVLVMLAAQSRRSVPLLRAISYHLVQKPFSLTKDVLLDVAYAYGKLSFHQTQVSQRLATDLLSLMPSLTSGEVAHCAKSFALLKWLSLPLFEAFAQHVLNRAQDITLPHLCSVLLAFARLNFHPDQEDQFFSLVHEKLGSELPGLEPALQVDLVWALCVLQQAREAELQAVLHPEFHIQFLGGKSQKDQNTFQKLLHINATALLEYPEYSGPLLPASAVAPGPSALDRKVTPLQKELQETLKGLLGSADKGSLEVATQYGWVLDAEVLLDSDGEFLPVRDFVAPHLAQPTGSQSPPPGSKRLAFLRWEFPNFNSRSKDLLGRFVLARRHIVAAGFLIVDVPFYEWLELKSEWQKGAYLKDKMRKAVAEELAK
PU-beads pull-down
  Matched Peptides by Fraction JA05: 14
  Matched Peptides by Fraction JA12: 14
  MAXIMUM matched peptides: 14
  Total fmol: 7.4653 fmol

B4: 5′-AMP-activated protein kinase catalytic subunit alpha-1; PRKAA1 (protein, UniProt Q13131 1-559, looked up)
5'-AMP-activated protein …: MRRLSSWRKMATAEKQKHDGRVKIGHYILGDTLGVGTFGKVKVGKHELTGHKVAVKILNRQKIRSLDVVGKIRREIQNLKLFRHPHIIKLYQVISTPSDIFMVMEYVSGGELFDYICKNGRLDEKESRRLFQQILSGVDYCHRHMVVHRDLKPENVLLDAHMNAKIADFGLSNMMSDGEFLRTSCGSPNYAAPEVISGRLYAGPEVDIWSSGVILYALLCGTLPFDDDHVPTLFKKICDGIFYTPQYLNPSVISLLKHMLQVDPMKRATIKDIREHEWFKQDLPKYLFPEDPSYSSTMIDDEALKEVCEKFECSEEEVLSCLYNRNHQDPLAVAYHLIIDNRRIMNEAKDFYLATSPPDSFLDDHHLTRPHPERVPFLVAETPRARHTLDELNPQKSKHQGVRKAKWHLGIRSQSRPNDIMAEVCRAIKQLDYEWKVVNPYYLRVRRKNPVTSTYSKMSLQLYQVDSRTYLLDFRSIDDEITEAKSGTATPQRSGSVSNYRSCQRSDSDAEAQGKSSEVSLTSSVTSLDSSPVDLTPRPGSHTIEFFEMCANLIKILAQ
PU-beads pull-down
  Matched Peptides by Fraction JA05: 12
  Matched Peptides by Fraction JA12: 9
  MAXIMUM matched peptides: 12
  Total fmol: 11.2910 fmol

B5: Calpain small subunit 1; CAPNS1 (protein, UniProt P04632 1-268, looked up)
Calpain small subunit 1: MFLVNSFLKGGGGGGGGGGGLGGGLGNVLGGLISGAGGGGGGGGGGGGGGGGGGGGTAMRILGGVISAISEAAAQYNPEPPPPRTHYSNIEANESEEVRQFRRLFAQLAGDDMEVSATELMNILNKVVTRHPDLKTDGFGIDTCRSMVAVMDSDTTGKLGFEEFKYLWNNIKRWQAIYKQFDTDRSGTICSSELPGAFEAAGFHLNEHLYNMIIRRYSDESGNMDFDNFISCLVRLDAMFRAFKSLDKDGTGQIQVNIQEWLQLTMYS
PU-beads pull-down
  Matched Peptides by Fraction JA07: 9
  Matched Peptides by Fraction JA14: 6
  MAXIMUM matched peptides: 9
  Total fmol: 10.0635 fmol

B6: Serine protease HTRA2 (protein, UniProt O43464 134-458, looked up)
Serine protease HTRA2, …: AVPSPPPASPRSQYNFIADVVEKTAPAVVYIEILDRHPFLGREVPISNGSGFVVAADGLIVTNAHVVADRRRVRVRLLSGDTYEAVVTAVDPVADIATLRIQTKEPLPTLPLGRSADVRQGEFVVAMGSPFALQNTITSGIVSSAQRPARDLGLPQTNVEYIQTDAAIDFGNSGGPLVNLDGEVIGVNTMKVTAGISFAIPSDRLREFLHRGEKKNSSSGISGSQRRYIGVMMLTLSPSILAELQLREPSFPDVQHGVLIHKVILGSPAHRAGLRPGDVILAIGEQMVQNAEDVYEAVRTQSQLAVQIRRGRETLTLYVTPEVTE
PU-beads pull-down
  Matched Peptides by Fraction JA07: 6
  Matched Peptides by Fraction JA14: 6
  MAXIMUM matched peptides: 6
  Total fmol: 8.0093 fmol
